Experimental data taken from PubChem BioAssay AID493014 (National Center for Advancing Translational Sciences (NCATS), 2011).
Out of some 340,000 compounds screened, about 170 (0.05%) were called active. The inconclusive results got no clear call from the source; some entries with a clear call stand among them for comparison. Calls come from the whole dose curve; as a rule, active = well fitted inhibition curve with a large enough effect in the signal ratio, with a control signal flat (not every such curve was filed as active); inconclusive = small, poorly fitted or top-dose-only effect, or effect the other way, or a change in a side signal; inactive = flat fitted curve, though single readings scatter; the % refers to the signal ratio. A potency beside an inconclusive call is a rough fit, not a confirmed value.

Test: qHTS Assay to Find Inhibitors of Chronic Active B-Cell Receptor Signaling;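 for activity change, negative = inhibition: plate controls were basal doxycycline-induced cells for no effect and cells given 10 µM MG132 for full effect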
Conditions: ABC-DLBCL IkBa-CBG/CBR reporter, luminescence ratio (green luciferase fused to IkBa over red control in TMD8 lymphoma cells), 4 h; activity change, negative = inhibition: at 46.1 µM (top of the series) unless noted
In short: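 Concentration-response series (up to 46 uM) were applied to TMD8 dual-reporter cells for 4 h at 37C with doxycycline. Green/red ratio, after filter-overlap correction, defined %Activity; red signal alone was normalised to basal cells and zero luminescence.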
Potency is the fitted concentration of half-maximal effect.

SMILES | activity change, negative = inhibition | Potency
COc1ccc(/C(C)=N/NC(=O)CNC(=O)c2ccco2)cc1 | inactive: 0.855% | 
CCOC(CCNC(=O)c1cc(-c2cccs2)nc2ccccc12)OCC | inconclusive: 3.4% | 
O=C(/C(=C/O)N=Nc1ccccc1)c1ccco1 |  | inconclusive: 35.5 µM [falling, single point]
O=C(O)c1ccccc1/C=N/Nc1ccc(S(=O)(=O)N2CCCC2)cc1[N+](=O)[O-] | inconclusive: -7.99% | 
Cn1cnc([N+](=O)[O-])c1Sc1nc2ccccc2[nH]1 | inconclusive: -7.79% | 
CCOC(=O)C1(Cc2ccccc2C(F)(F)F)CCN(C(C)COC)CC1 (configuration not stated) | inconclusive: 5.43% | 
COc1cc(C(=O)NC(=S)N(CCC#N)Cc2cccnc2)cc(OC)c1OC | inactive: 2.66% | 
O=C(NC1CCCCC1)c1ccc(-c2cccc([N+](=O)[O-])c2)o1 |  | inconclusive: 15.8 µM [falling, partial curve, poor fit]
CC(C)c1cc(C(=O)NNC(=S)NCc2ccco2)c(O)c(C(C)C)c1 | inconclusive: 19% | 
CCCCN(C)CCn1c(=S)[nH]c2cc(OCC)c(OCC)cc2c1=O | inconclusive: 17.6% | 
Cc1ccc(C)c(-n2cc(-c3ccccc3)nc2SCC(=O)Nc2ccccc2)c1 | inactive: 19.3% | 
Cc1cccc(N(CC(=O)NC(C)C)C(=O)CCC(=O)Nc2nccs2)c1 | inactive: 5.65% | 
Cn1c(=O)c2c(ncn2CC(=O)OCC(=O)NNC(=O)c2ccc(Cl)cc2)n(C)c1=O | inconclusive: 4.58% | 
Cn1c2c(c(=O)n(C)c1=O)[C@@]1(C(=O)Nc3ccccc31)C(C#N)=C(N)O2 |  | inconclusive: 20.6 µM [falling, partial curve]
c1ccc2c(-c3nnc(SCc4cn5ccccc5n4)o3)c[nH]c2c1 |  | inconclusive: 32.6 µM [falling, single point]
O=C(Nc1ccc(N2CCN(C(=O)c3ccco3)CC2)cc1)c1cc(Br)ccc1Cl | inactive: -9.59% | 
COc1ccc(-c2nn(-c3ccccc3)cc2/C=C2/SC(=S)N(Cc3ccco3)C2=O)c(C)c1 | inconclusive: 2.09% | 
CN(C)c1ccc(-n2cccc2)cc1 | inconclusive: -0.625% | 
COC(=O)C1=CN(c2cc(C)cc(C)c2)C=C(C(=O)OC)C1c1ccc(OC)c(O)c1 | inactive: -21.4% | 
CCN(CC)c1nc2c(s1)C(=O)NCCC2 | inconclusive: 1.11% | 
N/C(=N\NC(=O)c1ccccc1Cl)c1cc2ccccc2oc1=O |  | inconclusive: 6.31 µM [falling, partial curve, poor fit]
Cc1ccc(S(=O)(=O)N2CCC(NC(=O)c3ccccc3)CC2)cc1 | inconclusive: -26.3% | 
Cc1nn(C)cc1CN(C)C(=O)CCc1nnc(CCC2CCCCC2)o1 | inactive: -2.3% | 
CC1(C)CC(=O)C2=C(C1)N1CCCCC1CC2=O (configuration not stated) | inconclusive: -0.993% | 
C=CCNC(=O)c1ccccc1NC(=O)COc1ccc(OC)cc1 | inconclusive: -12% | 
CCNC(=O)COc1ccc(OCc2ccccc2)cc1 | inconclusive: 0.643% | 

3 entries from above, sorted by count of non-hydrogen atoms, rising.
SMILES | activity change, negative = inhibition | Potency
N/C(=N\NC(=O)c1ccccc1Cl)c1cc2ccccc2oc1=O |  | inconclusive: 6.31 µM [falling, partial curve, poor fit]
c1ccc2c(-c3nnc(SCc4cn5ccccc5n4)o3)c[nH]c2c1 |  | inconclusive: 32.6 µM [falling, single point]
CCOC(=O)C1(Cc2ccccc2C(F)(F)F)CCN(C(C)COC)CC1 (configuration not stated) | inconclusive: 5.43% | 

Carrying on.

SMILES | activity change, negative = inhibition | Potency
O=C(CCCN1C(=O)/C(=C\c2cccs2)SC1=S)Nc1ccc(O)cc1C(=O)O |  | inconclusive: 1.58 µM [falling, partial curve, poor fit]
CS(=O)(=O)c1ccc2nc(NC(=O)c3ccccc3Br)sc2c1 |  | inconclusive: 22.4 µM [falling, single point]
CCn1c2ccccc2c2cc(NC(=O)CSc3nnc(-c4cccc(OC)c4)n3N)ccc21 | inconclusive: -9.38% | 
COc1cc([C@H]2Oc3cc([C@H]4Oc5cc(O)cc(O)c5C(=O)[C@@H]4O)ccc3O[C@@H]2CO)ccc1O |  | inconclusive: 14.1 µM [rising, single point]
COc1ccc(S(=O)(=O)NCC2CCCN(C(=O)c3occc3C)C2)cc1 (configuration not stated) | inconclusive: 14.3% | 
Cc1ccc(-c2nc3sc(C(N)=O)c(N)c3c3c2CCCC3)cc1 | inactive: 3.71% | 
CCN(CC)CCNc1cc(C)c(C#N)c2nc3ccccc3n12 | inconclusive: 2.21% | 
O=C(Cn1c(=O)oc2cc(S(=O)(=O)NCc3ccccc3)ccc21)NCc1ccccc1Cl |  | inconclusive: 12.6 µM [rising, single point]
O=C(Cc1n[nH]c(=O)c2ccccc12)OCc1c(Cl)cccc1Cl | inactive: 10.8% | 
C[C@]12c3[nH]c4cc(-c5ccco5)ccc4c3CCN1C(=O)[C@@H](CC(=O)NCc1ccco1)C[C@@H]2C(=O)N1CCCCC1 |  | inconclusive: 32.6 µM [falling, partial curve, poor fit]
CC(=O)c1cc(F)c(N2CCOCC2)cc1C | inactive: -24.9% | 
O=Cc1ccc(OCC(=O)Nc2ccccc2C(F)(F)F)cc1 | inactive: -6.52% | 
CCCCCCNC(=O)c1cc(S(=O)(=O)N2CCc3ccccc32)ccc1F | inactive: -1.76% | 
CC(C(=O)Nc1ccc([N+](=O)[O-])cc1)N1CCN(C/C=C/c2ccccc2)CC1 (configuration not stated) | inconclusive: -1.55% | 
O=C(Nc1nnc(COc2ccc(F)cc2)s1)c1cccs1 | inconclusive: 4.33% | 
CCOc1ccc(NC(=S)N(CCN2CCOCC2)Cc2cc3cc4c(cc3[nH]c2=O)OCCO4)cc1 | inconclusive: -28.2% | 
N[C@@H](Cc1ccc(O)cc1)C(=O)Nc1ccc2ccccc2c1 | inconclusive: -9.27% | 
OC(CNCCc1ccc(Cl)cc1)COc1cc(Cl)ccc1Cl (configuration not stated) | inconclusive: 0.19% | 
COc1c(Cl)cc(Cl)cc1CNCCNCC(C)O (configuration not stated) |  | inconclusive: 15.8 µM [falling, partial curve, poor fit]
CC(C)CNC(=O)/C=C/C=C/c1ccc2c(c1)OCO2 | inconclusive: -3.07% | 
CC(/C=N/NC(=O)c1cc(C2CC2)[nH]n1)=C\c1ccccc1 | inconclusive: 5.12% | 
S=C1Nc2cc(Cl)ccc2Sc2ccccc21 | inconclusive: 5.63% | 
COc1cc(OC)cc(-c2nc(-c3cccs3)no2)c1 | inconclusive: 7.04% | 
O=C(CCCl)Nc1cc(SCCO)cc([N+](=O)[O-])c1 | inactive: 1.1% | 
CC(=O)NCCC(=O)Nc1nc(-c2c[nH]c3ccccc23)cs1 | inconclusive: -21.5% | 
O=C(COC(=O)Cc1ccc(Cl)cc1)NCCc1ccccc1 | inconclusive: -0.0186% | 
